Reference: patent publication US9717742B2, “Oxysterol analogue OXY133 induces osteogenesis and hedgehog signaling and inhibits adipogenesis” (The Regents of the University of California, priority 2012, dated 2017)
Entries after “also recorded” stand apart in the source; their conditions may differ. At least one structure is not confirmed: it was looked up by name or label, or the drawing left a doubt.

Assays:
[1] = system: primary human mesenchymal stem cells; assay: Extracellular matrix mineralization (von Kossa staining) in primary human MSC; type: cell-based; conditions: 5 weeks of treatment
Lewis rats = assay: Posterolateral intertransverse process spinal fusion at L4-L5 in rats; type: in vivo, rat; conditions: for formation of adipocytes within the fusion mass (histology, visual inspection): BMP2 5 μg vs Oxy133 treated groups
Procedure: Thirty-eight 8-week-old male Lewis rats were purchased from Charles River Laboratories (Wilmington, Mass.) and were maintained and housed at the UCLA vivarium in accordance with regulations set forth by the UCLA Office of Protection of Research Subjects. The study was performed under a protocol approved by the UCLA Animal Research Committee (ARC).
Animals were pre-medicated with sustained release buprenorphine thirty minutes prior to surgery and anesthetized with 2% isoflurane administered in oxygen (1 L/min). The surgical site was shaved and disinfected with Betadine and 70% ethanol. Posterolateral intertransverse process spinal fusion at L4-L5 was performed as in prior studies (21, 22). The L6 vertebral body was identified using the iliac crest as a landmark. A 4-cm longitudinal midline incision was made through the skin and subcutaneous tissue over L4-L5 down to the lumbodorsal fascia. A 2-cm longitudinal paramedial incision was then made in the paraspinal muscles bilaterally to expose the transverse processes of L4-L5, which were decorticated with a high-speed burr. The surgical site was then irrigated with sterile saline, and 5 mm×5 mm×13 mm pieces of collagen sponge (Helistat, Integra Life Sciences) containing dimethyl sulfoxide (DMSO) control, rhBMP-2, or Oxy133 were placed bilaterally, with each implant spanning the transverse processes. The implants were then covered with the overlying paraspinal muscles and the lumbodorsal fascia and skin were closed with 4-0 Prolene sutures (Ethicon, Inc., Somerville, N.J.). Animals were allowed to ambulate, eat, and drink ad libitum immediately after surgery.
Posteroanterior radiographs of the lumbar spine were taken on each animal at 4, 6, and 8 weeks after surgery using a Faxitron LX60 cabinet radiography system and evaluated blindly by two independent observers employing the following standardized scale: 0, no fusion; 1, unilateral fusion; and 2, complete bilateral fusion. The scores from the observers were added together and only a score of 4 was considered as complete fusion.
Eight weeks after surgery, animals were euthanized and the spines were surgically removed and evaluated by two blinded independent observers for motion between levels. Nonunion was recorded if motion was observed between the facets or transverse processes on either side. Complete fusion was recorded if no motion was observed bilaterally. Spines were scored as either fused or not fused. Unanimous agreement was required to consider complete fusion.
Each removed spine was analyzed by high resolution micro-computed tomography (micro-CT), using a SkyScan 1172 scanner (SkyScan, Belgium) with a voxel isotropic resolution of 20 μm and an X-ray energy of 55 kVp and […] to further assess the fusion rate and observe the fusion mass as we have previously reported (15). Three hundred and sixty projections were acquired over an angular range of 180° with steps of 0.5 with an exposure time of 220 msec/slice. Five frames were averaged at each rotation step to get better signal to noise ratio. A 0.5 mm aluminum filter was used to narrow down the X-ray beam frequency in order to minimize beam hardening artifact. Virtual image slices were reconstructed using the cone-beam reconstruction software version 2.6 based on the Feldkamp algorithm (SkyScan). These settings produced serial cross-sectional 1024×1024 pixel images. Sample re-orientation and 2D visualization were performed using DataViewer (SkyScan). 3D visualization was performed using Dolphin Imaging version 11 (Dolphin Imaging & Management Solutions, Chatsworth, Calif.). Fusion was defined as the bilateral presence of bridging bone between the L4 and L5 transverse processes. The reconstructed images were judged to be fused or not fused by two experienced independent observers.

[2] = system: primary human mesenchymal stem cells; assay: Osteogenic gene expression by quantitative RT-PCR in primary human MSC; type: cell-based; conditions: all time points, data not shown

CCCCCC[C@](C)(O)[C@H]1CC[C@H]2[C@@H]3C[C@H](O)[C@H]4C[C@@H](O)CC[C@]4(C)[C@H]3CC[C@@]21C [Oxy133, (3S,5S,6S,8R,9S,10R,13S,14S,17S) 17-((S)-2-hydroxyoctan-2-yl)-10,13-dimethylhexadecahydro-1H-cyclopenta[a]phenanthrene-3,6-diol]
extracellular matrix mineralization (von Kossa staining) [1]: robust extracellular matrix mineralization | formation of adipocytes within the fusion mass (histology, visual inspection) (Lewis rats; 8 weeks): substantially fewer adipocytes; also recorded: did not induce adipogenesis | formation of adipocytes within the fusion mass (histology, visual inspection) (Lewis rats; 8 weeks, listed as Oxy 133): significantly less | bone formation in fusion mass (histological assessment) (Lewis rats; BMP2 5 μg, Oxy133 2 or 20 mg, 8 weeks): formation of trabecular bone within the fusion mass and continuous cortical bone | animals with some bone formation, micro-CT (Lewis rats; Oxy133 0.2 mg): two | bilateral fusions, micro-CT (Lewis rats; Oxy133 0.2 mg): no bilateral fusions | animals with some bone formation, gross evaluation (Lewis rats; Oxy133 0.2 mg, after sacrifice): two | fusion by gross evaluation and manual assessment (Lewis rats; Oxy133 0.2 mg, after sacrifice): No unilateral or bilateral fusion | fusion mass on radiographs (Lewis rats; Oxy133 0.2 mg, eight weeks, data not shown): No fusion mass | fusion on radiographs (Lewis rats; Oxy133 0.2 mg, four weeks): no fusion | unilateral fusion, micro-CT (Lewis rats; Oxy133 2 mg): two | no evidence of fusion by manual palpation (Lewis rats; Oxy133 2 mg, after sacrifice): two | unilateral fusion by manual palpation (Lewis rats; Oxy133 2 mg, after sacrifice): two | unilateral fusion on radiographs (Lewis rats; Oxy133 2 mg, four weeks): three | unilateral fusion on radiographs (Lewis rats; Oxy133 20 mg, four weeks): in the remaining Oxy133-20 mg treated animal | trabecular bone formation compared with BMP2 group (visual inspection) (Lewis rats; Oxy133 20 mg, histology): more robust | ALP expression change [2]: no change
